Measurements: the supplement of paper PMC4962491
± gives the standard deviation of the averaged measurements. Only a part is listed here, and it is no random draw. This data set is noisy: repeats of one test often differ as much as different tests do.

Tested on: FaDu
Test: mitochondrial oxygen consumption rate normalised to cell number, Z score over the library; higher = higher oxygen consumption (negative = OCR reduction)
Conditions: treatment time 24 h, assay medium: 5 mM galactose, 5 mM pyruvate, 4 mM glutamine
Procedure: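 Primary screen: FaDu cells were incubated 24 h with Pharmakon 1600 / TDI oncology set compounds at 2 or 10 uM. Mitochondrial-specific OCR (basal minus 2 uM antimycin A) was measured on a Seahorse XF96 in assay medium with 5 mM galactose, 5 mM pyruvate and 4 mM glutamine, then corrected for Hoechst cell number and expressed as a Z score […]. Compounds that cut cell number by >66% were excluded. Two repeats.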

SMILES | mitochondrial oxygen consumption rate normalised (2 µM) | mitochondrial oxygen consumption rate normalised (10 µM)
C=CCSCC1Nc2cc(Cl)c(S(N)(=O)=O)cc2S(=O)(=O)N1 (stereo not drawn) | -0.309 ± 0.027 | 
CC(=O)Oc1cccc(C)c1 [meta-CRESYL ACETATE] | -0.297 ± 0.76 | 
CC(C)(O)c1ccccc1CC[C@@H](SCC1(CC(=O)O)CC1)c1cccc(/C=C/c2ccc3ccc(Cl)cc3n2)c1 | -0.46 ± 0.65 | 
CCN[C@@H]1C[C@H](N)[C@@H](O[C@H]2OC(CN)=CC[C@H]2N)[C@H](O)[C@H]1O[C@H]1OC[C@](C)(O)[C@H](NC)[C@H]1O | -0.0868 ± 0.95 | 1.16 ± 0.38
FC(F)(F)COCC(F)(F)F | 0.546 ± 1.1 | 
OCc1ccccc1O | -0.454 ± 0.27 | 
O=C(c1ccccc1)c1ccc2n1CCC2C(=O)O (stereo not drawn) | 0.497 ± 1.9 | 
COc1c(N2CCNC(C)C2)c(F)cc2c(=O)c(C(=O)O)cn(C3CC3)c12 (stereo not drawn) | -0.825 ± 0.97 | 
C#CCC(Cc1cnc2nc(N)nc(N)c2n1)c1ccc(C(=O)N[C@@H](CCC(=O)O)C(=O)O)cc1 (stereo partly drawn) [Pralatrexate] | 2.39 ± 1.1 | 
NC(=O)[C@@H]1CCCN1C(=O)[C@H](Cc1c[nH]cn1)NC(=O)[C@@H]1CCC(=O)N1 | -0.0448 ± 0.54 | 
CN(C)CC(c1ccc(O)cc1)C1(O)CCCCC1 (stereo not drawn) | 0.379 ± 0.24 | 
CO/N=C(\C(=O)N[C@@H]1C(=O)N2C(C(=O)OC(C)OC(C)=O)=C(COC(N)=O)CS[C@H]12)c1ccco1 (stereo partly drawn) | 0.434 ± 0.5 | 
Cc1cc(N)c2ccccc2[n+]1CCCCCCCCCC[n+]1c(C)cc(N)c2ccccc21 | -1.13 ± 0.53 | 
Nc1ccn([C@@H]2CS[C@H](CO)O2)c(=O)n1 | 0.445 ± 0.25 | 
COc1ccccc1OCC(O)COC(N)=O (stereo not drawn) | 0.2 ± 0.04 | 
COC(=O)Nc1nc2cc([S+]([O-])c3ccccc3)ccc2[nH]1 (stereo not drawn) | 0.342 ± 0.82 | 
C=CCCCCCCCCC(=O)[O-].C=CCCCCCCCCC(=O)[O-].[Zn+2] | 1.02 ± 0.65 | 
CCNC(=O)/C=C/c1cccc(Br)c1 | 0.616 ± 0.51 | 
CC(COc1ccccc1)NC(C)C(O)c1ccc(O)cc1 (stereo not drawn) | -1.38 ± 0.41 | 
CC(C)(C)c1ccc(C(O)CCCN2CCC(C(O)(c3ccccc3)c3ccccc3)CC2)cc1 (stereo not drawn) | 0.318 ± 2.3 | 
CC[C@@H](C(=O)[C@@H](C)[C@@H](O)[C@H](C)CCc1ccc(C)c(O)c1C(=O)O)[C@H]1O[C@](CC)([C@H]2CC[C@](O)(CC)[C@H](C)O2)C[C@@H]1C | -0.744 ± 1.4 | 
CCOC(=O)NNc1nncc2ccccc12 | -0.22 ± 0.35 | 
CCCCN1CCCCC1C(=O)Nc1c(C)cccc1C (stereo not drawn) | 0.299 ± 1.8 | 
CO/N=C1\C[C@]2(C[C@@H]3C[C@@H](C/C=C(\C)C[C@@H](C)/C=C/C=C4\CO[C@@H]5[C@H](O)C(C)=C[C@@H](C(=O)O3)[C@]45O)O2)O[C@H](/C(C)=C/C(C)C)[C@H]1C | 0.853 ± 0.57 | -0.513 ± 0.34

SMILES | mitochondrial oxygen consumption rate normalised (2 µM) | mitochondrial oxygen consumption rate normalised (10 µM)
CCN(CCO)CCCC(C)Nc1ccnc2cc(Cl)ccc12 (stereo not drawn) | -0.143 ± 0.39 | 
CC(=O)[C@H]1CC[C@H]2[C@@H]3CC=C4C[C@@H](O)CC[C@]4(C)[C@H]3CC[C@]12C | 1.07 ± 1 | 
COc1ccc(CC2c3cc(OC)c(OC)cc3CC[N+]2(C)CCC(=O)OCCCCCOC(=O)CC[N+]2(C)CCc3cc(OC)c(OC)cc3C2Cc2ccc(OC)c(OC)c2)cc1OC (stereo not drawn) | -0.778 ± 0.19 | 
CN(C)c1ccc(C(=C2C=CC(=[N+](C)C)C=C2)c2ccc(N(C)C)cc2)cc1 | -7.08 ± 0.1 | 
Cc1nc(-c2ccc(OCC(C)C)c(C#N)c2)sc1C(=O)O | 0.413 ± 0.64 | 
CN(C)CCCN1c2ccccc2Sc2ccc(Cl)cc21 | 0.193 ± 0.66 | 
O=c1ccc2ccccc2o1 | 0.465 ± 1.7 | 
COc1cc([C@@H]2c3cc4c(cc3[C@@H](O[C@@H]3O[C@@H]5CO[C@@H](c6cccs6)O[C@H]5[C@H](O)[C@H]3O)[C@H]3COC(=O)[C@H]23)OCO4)cc(OC)c1O | -2.54 ± 0.58 | 
O=c1[nH]cnc2c1ncn2[C@@H]1O[C@H](CO)[C@@H](O)[C@H]1O | -1.16 ± 0.35 | 
COc1ccnc(C[S+]([O-])c2nc3cc(OC(F)F)ccc3[nH]2)c1OC (stereo not drawn) | -0.759 ± 0.81 | 
Nc1ccn([C@@H]2O[C@H](CO)[C@@H](O)[C@@H]2O)c(=O)n1 | 0.73 ± 1.7 | 0.901 ± 0.043
Nc1ccn([C@@H]2O[C@H](CO)[C@@H](O)[C@@H]2O)c(=O)n1 [Cytarabine;  Ara-C] | 2.76 ± 0.9 | 1.36 ± 0.84
O=c1[nH]c(=O)c2ccccc2o1 | -0.384 ± 0.92 | 
Nc1ccc(S(=O)(=O)Nc2ccccn2)cc1 | -0.988 ± 0.24 | 
Cc1ccc(S(=O)(=O)NC(=O)NN2CCCCCC2)cc1 | 0.912 ± 0.093 | 
COc1cccc(OC)c1C(=O)N[C@@H]1C(=O)N2[C@@H]1SC(C)(C)[C@@H]2C(=O)O | -0.805 ± 0.5 | 
C[C@]12CC[C@@H]3c4ccc(OS(=O)(=O)O)cc4CC[C@H]3[C@@H]1CCC2=O | -0.146 ± 0.081 | 
CCN(CC)CCOC(=O)C(c1ccccc1)c1ccccc1 | 0.272 ± 0.35 | 
CCOC(=O)c1ccc(N)cc1 | -0.744 ± 1.3 | 
CC(C)(C)CC(C)(C)c1ccc(O)c(Cc2ccc(Cl)cc2Cl)c1 | -2.65 ± 0.4 | 
N[C@@H](Cc1ccc(O)cc1)C(=O)O | -0.329 ± 0.53 | 
O=C(COc1ccc(Cl)cc1)N1CCN(Cc2ccc3c(c2)OCO3)CC1 | -0.284 ± 0.99 | 
CN(Cc1cnc2nc(N)nc(N)c2n1)c1ccc(C(=O)N[C@@H](CCC(=O)O)C(=O)O)cc1 [Methotrexate] | 1.08 ± 0.41 | 
CCN(CC)CCNc1ccc(CO)c2sc3ccccc3c(=O)c12 | 0.0485 ± 0.37 | 

SMILES | mitochondrial oxygen consumption rate normalised (2 µM) | mitochondrial oxygen consumption rate normalised (10 µM)
CCOc1ccc2nc3cc(N)ccc3c(N)c2c1 | -1.45 ± 0.18 | -3.35 ± 0.25
Nc1nc(NC2CC2)c2ncn([C@H]3C=C[C@@H](CO)C3)c2n1 | 0.661 ± 0.15 | 
CN(C)c1ccc(O)c2c1C[C@H]1C[C@H]3[C@H](N(C)C)C(O)=C(C(N)=O)C(=O)[C@@]3(O)C(O)=C1C2=O | 0.0562 ± 0.62 | 
CCCCCCCCCCCCCCCCOP(=O)([O-])OCC[N+](C)(C)C | 0.0312 ± 0.37 | -1.18 ± 0.45
Cc1ccsc1/C=C/C1=NCCCN1C | 0.0791 ± 1.4 | 
CN(C)[C@@H]1C(O)=C(C(N)=O)C(=O)[C@@]2(O)C(O)=C3C(=O)c4c(O)cccc4[C@@](C)(O)[C@H]3[C@H](O)[C@@H]12 | -0.343 ± 0.2 | 0.305 ± 0.067
Cc1cc(-c2ccccc2)nnc1NCCN1CCOCC1 | -0.795 ± 1.1 | 
NC(N)=Nc1nc(CSCC/C(N)=N/S(N)(=O)=O)cs1 | 1.54 ± 0.38 | 
CSc1ccc2c(c1)N(CCC1CCCCN1C)c1ccccc1S2 (stereo not drawn) | -0.192 ± 0.25 | 
Cl.N=C(N)NCCC[C@H](N)C(=O)O | 0.851 ± 0.52 | 
CC1=C(/C=C/C(C)=C/C=C/C(C)=C\C(=O)O)C(C)(C)CCC1 | 0.214 ± 0.5 | 
CC/C(=C(/CC)c1ccc(O)cc1)c1ccc(O)cc1 | -0.488 ± 0.7 | 
CO[C@H](C(=O)[C@@H](O)[C@@H](C)O)[C@@H]1Cc2cc3cc(O[C@H]4C[C@@H](O[C@@H]5C[C@@H](O)[C@H](O)[C@@H](C)O5)[C@H](O)[C@@H](C)O4)c(C)c(O)c3c(O)c2C(=O)[C@H]1O[C@H]1C[C@@H](O[C@@H]2C[C@@H](O)[C@@H](O[C@@H]3C[C@](C)(O)[C@H](O)[C@@H](C)O3)[C@@H](C)O2)[C@H](O)[C@@H](C)O1 |  | -3.768 ± 0.0062
COc1cc(NC(C)CCCN)c2ncccc2c1 (stereo not drawn) | -0.512 ± 0.14 | 
CCCCC1(COC(=O)CCC(=O)O)C(=O)N(c2ccccc2)N(c2ccccc2)C1=O | -0.633 ± 0.51 | 
CCC(=O)c1ccc(O)cc1 | 1.23 ± 1.1 | 
Cn1ccnc1S | 0.409 ± 0.54 | 
Nc1c(Br)cc(Br)cc1CN[C@H]1CC[C@H](O)CC1 | -0.508 ± 0.76 | 
Oc1ccc(Cl)c2cccnc12 | -0.181 ± 1.1 | 
CS(=O)(=O)CCNCc1ccc(-c2ccc3ncnc(Nc4ccc(OCc5cccc(F)c5)c(Cl)c4)c3c2)o1 [Lapatinib Ditosylate] | -0.36 ± 1.4 | -0.0282 ± 1.2
CC(C)(Sc1cc(C(C)(C)C)c(O)c(C(C)(C)C)c1)Sc1cc(C(C)(C)C)c(O)c(C(C)(C)C)c1 | -0.441 ± 0.34 | 
CCCN(CCC)C(=O)C(CCC(=O)O)NC(=O)c1ccccc1 (stereo not drawn) | 0.308 ± 0.12 | 
C/C=C1\NC(=O)[C@H]2CSSCC/C=C/[C@H](CC(=O)N[C@H](C(C)C)C(=O)N2)OC(=O)[C@H](C(C)C)NC1=O [Romidepsin] | 1.6 ± 0.14 | 
CN1CCC(=C2c3ccccc3CC(=O)c3sccc32)CC1 | 0.665 ± 0.2 | 

Shown with tabs: part of the list above.
SMILES	mitochondrial oxygen consumption rate normalised (2 µM)	mitochondrial oxygen consumption rate normalised (10 µM)
COc1cc(NC(C)CCCN)c2ncccc2c1 (stereo not drawn)	-0.512 ± 0.14	
CCCCC1(COC(=O)CCC(=O)O)C(=O)N(c2ccccc2)N(c2ccccc2)C1=O	-0.633 ± 0.51	
CCC(=O)c1ccc(O)cc1	1.23 ± 1.1	

(listing goes on)

SMILES | mitochondrial oxygen consumption rate normalised (2 µM) | mitochondrial oxygen consumption rate normalised (10 µM)
COc1ccccc1N1CCN(CC(O)COc2cccc3ccccc23)CC1 (stereo not drawn) | 0.292 ± 0.2 | 
CCN1C(=O)NC(c2ccccc2)C1=O (stereo not drawn) | 0.719 ± 1.1 | 
O.O.O.O.O=C([O-])CC(O)(CC(=O)[O-])C(=O)[O-].[Li+].[Li+].[Li+] | 0.3 ± 1 | -0.228 ± 1.6
N#CC(c1ccc(Cl)cc1)c1c(Cl)cc(-n2ncc(=O)[nH]c2=O)cc1Cl (stereo not drawn) | -1.2 ± 1.7 | 
COc1cc(OC)c(C(=O)CCCN2CCCC2)c(OC)c1 | -0.105 ± 0.1 | 
CO[C@H]1C[C@H](O[C@H]2[C@H](C)[C@@H](O[C@@H]3O[C@H](C)C[C@H](N(C)C)[C@H]3OC(C)=O)[C@@H](C)C[C@@]3(CO3)C(=O)[C@H](C)[C@@H](OC(C)=O)[C@@H](C)[C@@H](C)OC(=O)[C@@H]2C)O[C@@H](C)[C@@H]1OC(C)=O | 0.275 ± 0.098 | 
O=C(O)C1CSCN1 (stereo not drawn) | -0.313 ± 0.61 | 
CC(C)(S)[C@@H](N)C(=O)O | -0.921 ± 0.073 | 
CCC(=O)OCC(=O)[C@@]1(OC(=O)CC)[C@H](C)CC2C3C([C@@H](O)C[C@@]21C)[C@@]1(C)C=CC(=O)C=C1C[C@H]3Cl (stereo partly drawn) | 0.479 ± 0.89 | 
O=C1O[C@H](CO)[C@@H](O)[C@H](O)[C@H]1O | -0.159 ± 0.74 | 
CCCCCCCCCCC[C@@H](C[C@@H]1OC(=O)[C@H]1CCCCCC)OC(=O)[C@H](CC(C)C)NC=O | -0.119 ± 0.79 | 
CC(C)(Oc1ccc(Cl)cc1)C(=O)O | -0.828 ± 0.29 | 
CN1CCCN=C1COC(=O)C(O)(c1ccccc1)C1CCCCC1 (stereo not drawn) | -0.634 ± 0.55 | 
CC(=O)NO | 1.76 ± 0.071 | 
CC(=O)N[C@@H](CCC(N)=O)C(=O)O | -0.681 ± 0.011 | 
NC12CC3CC(CC(C3)C1)C2 | 1.54 ± 0.49 | 
Cc1cc(=O)n(-c2ccccc2)n1C | -0.499 ± 0.12 | 
Clc1ccc(COC(Cn2ccnc2)c2ccc(Cl)cc2Cl)c(Cl)c1 (stereo not drawn) | -1.04 ± 0.26 | 
CC1CCc2c(N3CCC(O)CC3)c(F)cc3c(=O)c(C(=O)O)cn1c23 (stereo not drawn) | -0.643 ± 0.68 | 
Nc1ncnc(Nc2ccc(Cl)cc2)n1 | 0.0504 ± 1.1 | 
CN1CCN(C2=Nc3cc(Cl)ccc3Nc3ccccc32)CC1 | 0.215 ± 3 | 
CCCCCCCCCCCCCCCC(=O)NCCO | -0.98 ± 0.12 | 
